Measured values from publication doi:10.1101/2025.03.19.644120.
No constants are given. Whether binding was seen depends on the method and setting. Binding seen in cells or lysates may run through a third protein. Some results given as binding are weak or reduced against the parent protein; the word gives no strength. For some assays here: Sequences can lack the tags named with a protein.

Legend:
[1] = target: T1, IRT1-ALFA fusion 3 (ALFA tag inserted in the large cytosolic loop of IRT1) (Arabidopsis thaliana) (UniProt Q38856); test: split reporter
T1 sequence: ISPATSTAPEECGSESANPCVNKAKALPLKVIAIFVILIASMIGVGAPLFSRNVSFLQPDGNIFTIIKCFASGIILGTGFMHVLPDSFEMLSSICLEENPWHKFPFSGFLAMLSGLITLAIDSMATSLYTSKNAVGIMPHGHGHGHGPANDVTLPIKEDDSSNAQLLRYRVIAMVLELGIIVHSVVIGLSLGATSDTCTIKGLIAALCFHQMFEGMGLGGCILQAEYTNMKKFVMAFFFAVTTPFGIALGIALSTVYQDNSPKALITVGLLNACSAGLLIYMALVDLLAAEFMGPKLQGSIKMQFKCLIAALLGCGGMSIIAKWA

Lti6b-ALFA = target: T2, Lti6b-ALFA (UniProt Q9ZNS6); test: split reporter
T2 sequence: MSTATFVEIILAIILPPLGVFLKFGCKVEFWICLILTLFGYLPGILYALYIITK

binding [1]: binds
binding (Lti6b-ALFA): no binding
B1: FRO2-mCitC (protein, UniProt P92949 1-725)
chain: MEIEKSNNGGSNPSAGEEFKDMIKGVTKFLMMVIFLGTIMLWIMMPTLTYRTKWLPHLRIKFGTSTYFGATGTTLFMYMFPMMVVACLGCVYLHFKNRKSPHHIDRETKGGVWSKLRKPMLVKGPLGIVSVTEITFLAMFVALLLWCFITYLRNSFATITPKSAAAHDESLWQAKLESAALRLGLIGNICLAFLFLPVARGSSLLPAMGLTSESSIKYHIWLGHMVMALFTVHGLCYIIYWASMHEISQMIMWDTKGVSNLAGEIALAAGLVMWATTYPKIRRRFFEVFFYTHYLYIVFMLFFVLHVGISFSFIALPGFYIFLVDRFLRFLQSRENVRLLAARILPSDTMELTFSKNSKLVYSPTSIMFVNIPSISKLQWHPFTITSSSKLEPEKLSIVIKKEGKWSTKLHQRLSSSDQIDRLAVSVEGPYGPASADFLRHEALVMVCGGSGITPFISVIRDLIATSQKETCKIPKITLICAFKKSSEISMLDLVLPLSGLETELSSDINIKIEAFITRDNDAGDEAKAGKIKTLWFKPSLSDQSISSILGPNSWLWLGAILASSFLIFMIIIGIITRYYIYPIDHNTNKIYSLTSKTIIYILVISVSIMATCSAAMLWNKKKYGKVESKQVQNVDRPSPTSSPTSSWGYNSLREIESTPQESLVQRTNLHFGERPNLKKLLLDVEGSSVGVLVCGPKKMRQKVAEICSSGLAENLHFESISFSW
